Results reported in PubChem BioAssay AID194 (DTP/NCI, 2004).
The list is a part of this screen's results and no random one: it gathers some chemical classes. Other doses and runs of a compound may be missing. T/C gives the treated animals as a percentage of the vehicle group. For survival time, the PubChem record calls one and a half times the control and up active, and a quarter to a half above the control has no call in these data; cut-offs in other NCI protocols can differ. Schedules are NCI's codes, read here as Q, the interval in days (D) or hours (H), X, the number of doses. Some entries show no survivor count and are marked so; the dose need not have been tolerated.

Tested on: BDF1 mice, B16 melanoma s.c., survival/tumor T/C
Experiment: NCI In Vivo Anticancer Drug Screen. Data for tumor model B16 Melanoma (subcutaneous) in B6D2F1 (BDF1) mice
Conditions: T/C endpoint: median survival time, schedule: Q01DX009 (ip), higher T/C = longer survival
Protocol: The antitumor activity of compounds was measured in mice bearing transplantable tumors. Survival or tumor size were measured and the results are expressed as the measurement made in the treated group (T) divided by the measurement made in the vehicle treated control group (C). The tumor model used in this assay is B16 Melanoma (subcutaneous) in B6D2F1 (BDF1) mice

Row | SMILES | T/C (dose: 0.03 mg/kg/injection, vehicle: saline) | T/C (dose: 0.06 mg/kg/injection, vehicle: saline) | T/C (dose: 0.12 mg/kg/injection, vehicle: saline) | T/C (dose: 0.25 mg/kg/injection, vehicle: saline) | T/C (dose: 0.5 mg/kg/injection, vehicle: saline) | T/C (dose: 1.0 mg/kg/injection, vehicle: saline) | T/C (dose: 2.0 mg/kg/injection, vehicle: saline) | T/C (dose: 6.25 mg/kg/injection, vehicle: saline with Tween-80) | T/C (dose: 12.5 mg/kg/injection, vehicle: saline with Tween-80) | T/C (dose: 50.0 mg/kg/injection, vehicle: saline with Tween-80)
1 | NC(Cc1ccc(O)c(N(CCCl)CCCl)c1)C(=O)O (stereo not given) | 97 % of control [survivor count not shown] | 106 % of control [survivor count not shown] | 102 % of control [survivor count not shown] | 100 % of control [survivor count not shown] | 110 % of control [survivor count not shown] | 104 % of control [survivor count not shown] | 114 % of control [survivor count not shown] | – | – | –
2 | O=NN(CCSCCCl)C(=O)NC1CCCCC1 | – | – | – | – | – | – | – | 131 % of control | 102 % of control | 142 % of control
